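A luciferase reporter cell line built on Ba/F3 cells tracks thrombopoietin receptor signalling; the light signal is read once incubation with the test compounds ends. Each compound was tested as a dilution series from about 0.0025 to 38 µM. The number is a fitted AC50, and a lower value means a more potent compound; the curve note shows whether the light signal rose or fell. Well-fitted complete curves, or well-fitted partial curves with high efficacy, are called active, flat curves inactive, and all other curves, including signal decreases, inconclusive.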

Values are in nM. Every entry below has the call inconclusive. These entries are mostly ones the record files as inconclusive; other results of the assay are not listed here. A potency from a partial, single-point or poor curve is only a rough figure. Some entries filed as inconclusive have a full curve. The first word of each remark tells which way the curve ran; it can be opposite to the aim of the assay.

| SMILES | tested on / at | potency (nM) | curve |
|---|---|---|---|
| `CC(C)NC[C@H](O)COc1ccc(CC(N)=O)cc1` | stimulated with TPO at its EC50 | 5012 | activator, single point |
| `COC(=O)C1=C(C)NC(C)=C(C(=O)OC)C1c1ccccc1[N+](=O)[O-]` | - | 1585 | inhibitor, full curve |
| `C[C@H](N)Cc1c[nH]c2ccc(OCc3cccs3)cc12` | - | 7943 | inhibitor, partial curve |
| `CN(C)c1cc2c(Nc3ccc4c(cnn4Cc4ccccc4)c3)ncnc2cn1` | stimulated with TPO at its EC50 | 10000 | inhibitor, partial curve |
| `O=C(CCCN1CCC(O)(c2ccc(Cl)cc2)CC1)c1ccc(F)cc1` | stimulated with TPO at its EC50 | 6310 | inhibitor, full curve, poor fit |
| `C[C@H](N)Cc1cnc[nH]1` | stimulated with TPO at its EC50 | 10000 | inhibitor, partial curve, poor fit |
| `Nc1nc(Nc2ccccc2)nc2c1ncn2[C@@H]1O[C@@H](CO)[C@H](O)[C@@H]1O` | stimulated with TPO at its EC50 | 15848 | inhibitor, partial curve |
| `Nc1ccc(S(=O)(=O)Nc2ccnn2-c2ccccc2)cc1` | stimulated with TPO at its EC50 | 15848 | inhibitor, partial curve |
| `CCC(=O)c1ccc2c(c1)N(CCCN(C)C)c1ccccc1S2` | stimulated with TPO at its EC50 | 15848 | inhibitor, single point |
| `OC[C@H]1O[C@@H](n2cnc3c(NCCc4ccccc4)ncnc32)[C@H](O)[C@H]1O` | stimulated with TPO at its EC50 | 3981 | activator, full curve |
| `CN(C)C(=O)C(CCN1CCC(O)(c2ccc(Cl)cc2)CC1)(c1ccccc1)c1ccccc1` | - | 12589 | inhibitor, single point |

Once more, the final 2:

SMILES	tested on / at	potency (nM)	curve
OC[C@H]1O[C@@H](n2cnc3c(NCCc4ccccc4)ncnc32)[C@H](O)[C@H]1O	stimulated with TPO at its EC50	3981	activator, full curve
CN(C)C(=O)C(CCN1CCC(O)(c2ccc(Cl)cc2)CC1)(c1ccccc1)c1ccccc1	-	12589	inhibitor, single point

Source: PubChem BioAssay AID917 (NCATS, 2007).